The values below come from patent publication US7582618B2 (priority 2002, dated 2009).

“And” between values parts separate entries of the source, which are not always exact repeats. Identical values can stand only once. Marks after values point to notes of the source that are not given here.

In this data set the test system is HepG2 cells. As to the kind of experiment: Incorporation of drug into cellular RNA and DNA. The conditions noted are these: HepG2, 10 μM labeled drug, 30 hours; for Incorporated drug amount pmole/μg DNA: into cellular DNA; for Incorporated drug amount pmole/μg RNA / incorporation into RNA: into cellular RNA. Type of data set: cell-based, human.

In the case of `Cc1cn([C@H]2C[C@H](N=[N+]=[N-])[C@@H](CO)O2)c(=O)[nH]c1=O` [ZDV, zidovudine], the “Incorporated drug amount pmole/μg DNA” value was 0.103 pmole/μg and 0.103 ± 0.0123^a pmole/μg; the “Incorporated drug amount pmole/μg RNA” value is listed as 0.0009 ± 0.0003^a pmole/μg; the “incorporation into RNA” value is on record as 0.0009 pmole/1 g.

In the case of `Nc1ccn([C@H]2CC[C@@H](CO)O2)c(=O)n1` [ddC, zalcitabine], the “Incorporated drug amount pmole/μg DNA” value is 0.0055 pmole/μg and 0.0055^b pmole/μg; the “Incorporated drug amount pmole/μg RNA” value is on record as 0.0013^b pmole/μg; the “incorporation into RNA” value came to 0.0013 pmole/1 g.

In the case of `CC1(O)C(O)C(CO)OC1n1ccc(N)nc1=O` (stereo not shown) [mCyd, 4-Amino-1-(3,4-dihydroxy-5-hydroxymethyl-3-methyl-tetrahydro-furan-2-yl)-1H-pyrimidine-2-one], the “Incorporated drug amount pmole/μg DNA” value is 0.0013-0.0014 pmole/μg and 0.0013 ± 0.0008^a pmole/μg; the “Incorporated drug amount pmole/μg RNA” value is 0.0013-0.0014 pmole/μg and 0.0014 ± 0.0008^a pmole/μg.

Take `NC(=O)c1ncn([C@@H]2O[C@H](CO)[C@@H](O)[C@H]2O)n1` [ribavirin, 1-β-D-ribofuranosyl-1-1,2,4-triazole-3-carboxamide, reference compound]: the “Incorporated drug amount pmole/μg DNA” value was 0.0120^b pmole/μg and the “Incorporated drug amount pmole/μg RNA” value is given as 0.0132^c pmole/μg.
